# Measurements taken from the supplement of paper PMC8728848.
# The other results are listed elsewhere or left out.
# B1: EULS2 M1 (Oryza sativa) (protein)
# chain: MVYCRANPNYAMTARNGAVVLAPANPKDEYQHWIKDMRWSTSIKDEEGYPAFALVNKATGQAIKHSLGQSHPVRLVPYNPEVMDESVLWTESRDVGNGFRCIRMVNNIYLNFDAFHGDKYHGGVRDGTDIVLWKLCEGDNQRWKIQPYYILEQKLISEEDLNSAVDHHHHHH
# Key:
# Assay in all cases: glycan array binding signal (z-score within array); higher = stronger binding
# Conditions in all cases: glycan notation: IUPAC condensed, linker removed
# Glc(b1-6)Glc = molecular target: Glc(b1-6)Glc
# Summary of the method: (§1)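 Glycan array binding is given as a within-array Z-score, which can be read as non-binding when negative. The arrays, 3228 of them, came from the Consortium for Functional Glycomics database and were retained only where the protein sequence was available. Z-scores were averaged across arrays of the same protein sequence at different concentrations or buffers and across linkers.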
# GlcA(b1-3)Gal = molecular target: GlcA(b1-3)Gal
# Summary of the method: as §1
# GlcA(b1-3)GlcNAc = molecular target: GlcA(b1-3)GlcNAc
# Summary of the method: as §1
# GlcA(b1-6)Gal = molecular target: GlcA(b1-6)Gal
# Summary of the method: as §1
# [1] = molecular target: GlcA3S(b1-3)Gal(b1-4)GlcNAc(b1-2)Man
# Summary of the method: as §1
# [2] = molecular target: GlcA3S(b1-3)Gal(b1-4)GlcNAc(b1-3)Gal(b1-4)Glc
# Summary of the method: as §1
# [3] = molecular target: GlcNAc(a1-3)Gal(b1-4)GlcNAc
# Summary of the method: as §1
# [4] = molecular target: GlcNAc(a1-4)Gal(b1-3)GlcNAc
# Summary of the method: as §1
# [5] = molecular target: GlcNAc(a1-4)Gal(b1-4)GalNAc
# Summary of the method: as §1
# [6] = molecular target: GlcNAc(a1-4)Gal(b1-4)GlcNAc
# Summary of the method: as §1
# [7] = molecular target: GlcNAc(a1-4)Gal(b1-4)GlcNAc(b1-3)Gal(b1-4)Glc
# Summary of the method: as §1
# [8] = molecular target: GlcNAc(a1-4)Gal(b1-4)GlcNAc(b1-3)Gal(b1-4)GlcNAc
# Summary of the method: as §1
# [9] = molecular target: GlcNAc(a1-4)Gal(b1-4)GlcNAc(b1-3)Gal(b1-4)GlcNAc(b1-3)Gal(b1-4)GlcNAc
# Summary of the method: as §1
# [10] = molecular target: GlcNAc(a1-4)Gal(b1-4)GlcNAc(b1-3)Gal(b1-4)[Fuc(a1-3)]GlcNAc(b1-3)Gal(b1-4)[Fuc(a1-3)]GlcNAc
# Summary of the method: as §1
# [11] = molecular target: GlcNAc(a1-6)Gal(b1-4)GlcNAc
# Summary of the method: as §1
# [12] = molecular target: GlcNAc(b1-2)Gal(b1-3)GalNAc
# Summary of the method: as §1
# [13] = molecular target: GlcNAc(b1-2)Man(a1-3)[GlcNAc(b1-2)Man(a1-6)]Man(b1-4)GlcNAc(b1-4)GlcNAc
# Summary of the method: as §1
# [14] = molecular target: GlcNAc(b1-2)Man(a1-3)[GlcNAc(b1-2)Man(a1-6)]Man(b1-4)GlcNAc(b1-4)[Fuc(a1-6)]GlcNAc
# Summary of the method: as §1
# [15] = molecular target: GlcNAc(b1-2)Man(a1-3)[GlcNAc(b1-4)][GlcNAc(b1-2)Man(a1-6)]Man(b1-4)GlcNAc(b1-4)GlcNAc
# Summary of the method: as §1
# [16] = molecular target: GlcNAc(b1-2)Man(a1-3)[GlcNAc(b1-4)][GlcNAc(b1-2)Man(a1-6)]Man(b1-4)GlcNAc(b1-4)[Fuc(a1-6)]GlcNAc
# Summary of the method: as §1
# [17] = molecular target: GlcNAc(b1-2)[GlcNAc(b1-4)]Man(a1-3)[GlcNAc(b1-2)Man(a1-6)]Man(b1-4)GlcNAc(b1-4)GlcNAc
# Summary of the method: as §1
# [18] = molecular target: GlcNAc(b1-2)[GlcNAc(b1-4)]Man(a1-3)[GlcNAc(b1-4)][GlcNAc(b1-2)Man(a1-6)]Man(b1-4)GlcNAc(b1-4)GlcNAc
# Summary of the method: as §1
# [19] = molecular target: GlcNAc(b1-2)[GlcNAc(b1-4)]Man(a1-3)[GlcNAc(b1-4)][GlcNAc(b1-2)[GlcNAc(b1-6)]Man(a1-6)]Man(b1-4)GlcNAc(b1-4)GlcNAc
# Summary of the method: as §1
# [20] = molecular target: GlcNAc(b1-2)[GlcNAc(b1-4)]Man(a1-3)[GlcNAc(b1-4)][GlcNAc(b1-2)[GlcNAc(b1-6)]Man(a1-6)]Man(b1-4)GlcNAc(b1-4)[Fuc(a1-6)]GlcNAc
# Summary of the method: as §1
# [21] = molecular target: GlcNAc(b1-2)[GlcNAc(b1-6)]Man(a1-6)[GlcNAc(b1-2)Man(a1-3)]Man(b1-4)GlcNAc(b1-4)GlcNAc
# Summary of the method: as §1
# [22] = molecular target: GlcNAc(b1-2)[GlcNAc(b1-6)]Man(a1-6)[GlcNAc(b1-2)Man(a1-3)]Man(b1-4)GlcNAc(b1-4)[Fuc(a1-6)]GlcNAc
# Summary of the method: as §1
# [23] = molecular target: GlcNAc(b1-2)[GlcNAc(b1-6)]Man(a1-6)[GlcNAc(b1-4)][GlcNAc(b1-2)Man(a1-3)]Man(b1-4)GlcNAc(b1-4)GlcNAc
# Summary of the method: as §1
# GlcNAc(b1-3)Fuc = molecular target: GlcNAc(b1-3)Fuc
# Summary of the method: as §1
# GlcNAc(b1-3)Gal = molecular target: GlcNAc(b1-3)Gal
# Summary of the method: as §1
# [24] = molecular target: GlcNAc(b1-3)Gal(b1-3)GalNAc
# Summary of the method: as §1
# GlcNAc(b1-3)Gal(b1-4)Glc = molecular target: GlcNAc(b1-3)Gal(b1-4)Glc
# Summary of the method: as §1
# [25] = molecular target: GlcNAc(b1-3)Gal(b1-4)GlcNAc
# Summary of the method: as §1
# [26] = molecular target: GlcNAc(b1-3)Gal(b1-4)GlcNAc(b1-2)Man(a1-3)[GlcNAc(b1-3)Gal(b1-4)GlcNAc(b1-2)Man(a1-6)]Man(b1-4)GlcNAc(b1-4)GlcNAc
# Summary of the method: as §1
# [27] = molecular target: GlcNAc(b1-3)Gal(b1-4)GlcNAc(b1-2)Man(a1-3)[GlcNAc(b1-3)Gal(b1-4)GlcNAc(b1-2)Man(a1-6)]Man(b1-4)GlcNAc(b1-4)[Fuc(a1-6)]GlcNAc
# Summary of the method: as §1
# [28] = molecular target: GlcNAc(b1-3)Gal(b1-4)GlcNAc(b1-2)[GlcNAc(b1-3)Gal(b1-4)GlcNAc(b1-6)]Man(a1-6)[GlcNAc(b1-3)Gal(b1-4)GlcNAc(b1-2)Man(a1-3)]Man(b1-4)GlcNAc(b1-4)GlcNAc
# Summary of the method: as §1
# [29] = molecular target: GlcNAc(b1-3)Gal(b1-4)GlcNAc(b1-3)Gal(b1-4)GlcNAc
# Summary of the method: as §1
# [30] = molecular target: GlcNAc(b1-3)Gal(b1-4)GlcNAc(b1-3)Gal(b1-4)GlcNAc(b1-2)Man(a1-3)[GlcNAc(b1-3)Gal(b1-4)GlcNAc(b1-3)Gal(b1-4)GlcNAc(b1-2)Man(a1-6)]Man(b1-4)GlcNAc(b1-4)GlcNAc
# Summary of the method: as §1
# [31] = molecular target: GlcNAc(b1-3)Gal(b1-4)GlcNAc(b1-3)Gal(b1-4)GlcNAc(b1-2)Man(a1-3)[GlcNAc(b1-3)Gal(b1-4)GlcNAc(b1-3)Gal(b1-4)GlcNAc(b1-2)Man(a1-6)]Man(b1-4)GlcNAc(b1-4)[Fuc(a1-6)]GlcNAc
# Summary of the method: as §1
# [32] = molecular target: GlcNAc(b1-3)Gal(b1-4)GlcNAc(b1-3)Gal(b1-4)GlcNAc(b1-2)[GlcNAc(b1-3)Gal(b1-4)GlcNAc(b1-3)Gal(b1-4)GlcNAc(b1-6)]Man(a1-6)[GlcNAc(b1-3)Gal(b1-4)GlcNAc(b1-3)Gal(b1-4)GlcNAc(b1-2)Man(a1-3)]Man(b1-4)GlcNAc(b1-4)[Fuc(a1-6)]GlcNAc
# Summary of the method: as §1
# [33] = molecular target: GlcNAc(b1-3)Gal(b1-4)GlcNAc(b1-3)Gal(b1-4)GlcNAc(b1-3)Gal(b1-4)GlcNAc(b1-2)Man(a1-3)[GlcNAc(b1-3)Gal(b1-4)GlcNAc(b1-3)Gal(b1-4)GlcNAc(b1-3)Gal(b1-4)GlcNAc(b1-2)Man(a1-6)]Man(b1-4)GlcNAc(b1-4)GlcNAc
# Summary of the method: as §1
# [34] = molecular target: GlcNAc(b1-3)Gal(b1-4)GlcNAc(b1-3)Gal(b1-4)GlcNAc(b1-3)Gal(b1-4)GlcNAc(b1-2)Man(a1-3)[GlcNAc(b1-3)Gal(b1-4)GlcNAc(b1-3)Gal(b1-4)GlcNAc(b1-3)Gal(b1-4)GlcNAc(b1-2)Man(a1-6)]Man(b1-4)GlcNAc(b1-4)[Fuc(a1-6)]GlcNAc
# Summary of the method: as §1
# [35] = molecular target: GlcNAc(b1-3)Gal(b1-4)GlcNAc(b1-3)Gal(b1-4)GlcNAc(b1-3)Gal(b1-4)GlcNAc(b1-2)[GlcNAc(b1-3)Gal(b1-4)GlcNAc(b1-3)Gal(b1-4)GlcNAc(b1-3)Gal(b1-4)GlcNAc(b1-6)]Man(a1-6)[GlcNAc(b1-3)Gal(b1-4)GlcNAc(b1-3)Gal(b1-4)GlcNAc(b1-3)Gal(b1-4)GlcNAc(b1-2)Man(a1-3)]Man(b1-4)GlcNAc(b1-4)[Fuc(a1-6)]GlcNAc
# Summary of the method: as §1
# [36] = molecular target: GlcNAc(b1-3)Gal(b1-4)GlcNAc(b1-3)Gal(b1-4)GlcNAc(b1-3)Gal(b1-4)GlcNAc(b1-3)Gal(b1-4)GlcNAc(b1-2)Man(a1-3)[GlcNAc(b1-3)Gal(b1-4)GlcNAc(b1-3)Gal(b1-4)GlcNAc(b1-3)Gal(b1-4)GlcNAc(b1-3)Gal(b1-4)GlcNAc(b1-2)Man(a1-6)]Man(b1-4)GlcNAc(b1-4)GlcNAc
# Summary of the method: as §1
# [37] = molecular target: GlcNAc(b1-3)Gal(b1-4)GlcNAc(b1-3)Gal(b1-4)GlcNAc(b1-3)Gal(b1-4)GlcNAc(b1-3)Gal(b1-4)GlcNAc(b1-2)Man(a1-3)[GlcNAc(b1-3)Gal(b1-4)GlcNAc(b1-3)Gal(b1-4)GlcNAc(b1-3)Gal(b1-4)GlcNAc(b1-3)Gal(b1-4)GlcNAc(b1-2)Man(a1-6)]Man(b1-4)GlcNAc(b1-4)[Fuc(a1-6)]GlcNAc
# Summary of the method: as §1
# [38] = molecular target: GlcNAc(b1-3)Gal(b1-4)GlcNAc(b1-3)Gal(b1-4)GlcNAc(b1-3)Gal(b1-4)GlcNAc(b1-3)Gal(b1-4)GlcNAc(b1-2)[GlcNAc(b1-3)Gal(b1-4)GlcNAc(b1-3)Gal(b1-4)GlcNAc(b1-3)Gal(b1-4)GlcNAc(b1-3)Gal(b1-4)GlcNAc(b1-6)]Man(a1-6)[GlcNAc(b1-3)Gal(b1-4)GlcNAc(b1-3)Gal(b1-4)GlcNAc(b1-3)Gal(b1-4)GlcNAc(b1-3)Gal(b1-4)GlcNAc(b1-2)Man(a1-3)]Man(b1-4)GlcNAc(b1-4)[Fuc(a1-6)]GlcNAc
# Summary of the method: as §1
binder,measurement,setting,value
B1,glycan array binding signal (z-score),Glc(b1-6)Glc,0.366
same,glycan array binding signal (z-score),GlcA(b1-3)Gal,-0.545
same,glycan array binding signal (z-score),GlcA(b1-3)GlcNAc,0.171
same,glycan array binding signal (z-score),GlcA(b1-6)Gal,-0.084
same,glycan array binding signal (z-score),[1],-0.661
same,glycan array binding signal (z-score),[2],-0.764
same,glycan array binding signal (z-score),[3],-0.925
same,glycan array binding signal (z-score),[4],-0.287
same,glycan array binding signal (z-score),[5],-0.99
same,glycan array binding signal (z-score),[6],0.069
same,glycan array binding signal (z-score),[7],-0.177
same,glycan array binding signal (z-score),[8],-0.094
same,glycan array binding signal (z-score),[9],-0.525
same,glycan array binding signal (z-score),[10],0.441
same,glycan array binding signal (z-score),[11],0.36
same,glycan array binding signal (z-score),[12],-0.027
same,glycan array binding signal (z-score),[13],-0.045
same,glycan array binding signal (z-score),[14],-1.05
same,glycan array binding signal (z-score),[15],-0.183
same,glycan array binding signal (z-score),[16],-0.678
same,glycan array binding signal (z-score),[17],-0.646
same,glycan array binding signal (z-score),[18],-0.614
same,glycan array binding signal (z-score),[19],-0.526
same,glycan array binding signal (z-score),[20],2.74
same,glycan array binding signal (z-score),[21],0.133
same,glycan array binding signal (z-score),[22],-0.248
same,glycan array binding signal (z-score),[23],0.449
same,glycan array binding signal (z-score),GlcNAc(b1-3)Fuc,-0.923
same,glycan array binding signal (z-score),GlcNAc(b1-3)Gal,-0.114
same,glycan array binding signal (z-score),[24],-0.046
same,glycan array binding signal (z-score),GlcNAc(b1-3)Gal(b1-4)Glc,-0.563
same,glycan array binding signal (z-score),[25],0.2
same,glycan array binding signal (z-score),[26],-0.197
same,glycan array binding signal (z-score),[27],-0.472
same,glycan array binding signal (z-score),[28],1.22
same,glycan array binding signal (z-score),[29],-0.292
same,glycan array binding signal (z-score),[30],1.1
same,glycan array binding signal (z-score),[31],0.217
same,glycan array binding signal (z-score),[32],-0.196
same,glycan array binding signal (z-score),[33],-0.145
same,glycan array binding signal (z-score),[34],-0.036
same,glycan array binding signal (z-score),[35],-0.35
same,glycan array binding signal (z-score),[36],-0.217
same,glycan array binding signal (z-score),[37],0.26
same,glycan array binding signal (z-score),[38],-0.332

# 2 consecutive records from above:
binder,measurement,setting,value
B1,glycan array binding signal (z-score),[5],-0.99
same,glycan array binding signal (z-score),[6],0.069
